Measured data: PubChem BioAssay AID504744 (Drosophila RNAi Screening Center, 2011)

Aim: 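Find genes whose loss alters insulin-driven dAkt phosphorylation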 (primary screen)
Cell system: Drosophila Kc167 cells
Reagents: long dsRNA against Drosophila genes, 250 ng dsRNA per well of a 384-well plate
Duration: 3 days of knock-down, then overnight serum-free starvation before stimulation
Challenge: bovine insulin at 387 nM for 10 minutes after 12 h without serum
Detection: 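Per-well phospho-dAkt level from an in-cell fluorescent antibody stain, divided by a DNA-dye signal; log2 residuals turned into z-scores that take cell number into account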
Call rule: 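Hit in the insulin screen when the two-replicate mean z-score is more extreme than plus or minus 2.5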
The screen tested about 23,000 reagents; this is an unselected part of those that have a named target and a result. Over the whole deposit, 98 (0.43%) are marked active. 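Only hit calls are given; the phospho-dAkt signals, z-scores and hit direction were not deposited.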

CG40551 (retired record) [DRSC21229] — Outcome: inactive
sip3 [DRSC15402] — Outcome: inactive
CG33160 [DRSC08197] — Outcome: inactive
Mf [DRSC16120] — Outcome: inactive
CG14777 [DRSC18563] — Outcome: inactive
Gycbeta100B [DRSC14039] — Outcome: inactive
Gycbeta100B [DRSC14040] — Outcome: inactive
Gycbeta100B [DRSC16691] — Outcome: inactive
Jabba [DRSC06521] — Outcome: inactive
sowi [DRSC12558] — Outcome: inactive
CG12983 [DRSC11692] — Outcome: inactive
CG34026 [DRSC17616] — Outcome: inactive
CG15876 [DRSC08484] — Outcome: inactive
Hen1 [DRSC06139] — Outcome: inactive
Hen1 [DRSC06140] — Outcome: inactive

3 entries from above, reformatted:
Gycbeta100B [DRSC16691]
- Outcome: inactive

Jabba [DRSC06521]
- Outcome: inactive

sowi [DRSC12558]
- Outcome: inactive

More results follow.
CG4101 [DRSC10400] — Outcome: inactive
Adk3 [DRSC05917] — Outcome: inactive
CG17075 [DRSC00483] — Outcome: inactive
Epg5 [DRSC14778] — Outcome: inactive
crm [DRSC18754] — Outcome: inactive
Usp32 [DRSC10979] — Outcome: inactive
kn [DRSC05505] — Outcome: inactive
kn [DRSC05507] — Outcome: inactive
kn [DRSC06196] — Outcome: inactive
kn [DRSC07637] — Outcome: inactive
kn [DRSC21533] — Outcome: inactive
